Measurements from paper PMC5529527.
No constants are given. Whether binding was seen depends on the method and setting. Binding seen in cells or lysates may run through a third protein. Some results given as binding are weak or reduced against the parent protein; the word gives no strength.

Protein sequences, listed by entry. Tags and fused reporters are not part of them.
UniProt Q62432: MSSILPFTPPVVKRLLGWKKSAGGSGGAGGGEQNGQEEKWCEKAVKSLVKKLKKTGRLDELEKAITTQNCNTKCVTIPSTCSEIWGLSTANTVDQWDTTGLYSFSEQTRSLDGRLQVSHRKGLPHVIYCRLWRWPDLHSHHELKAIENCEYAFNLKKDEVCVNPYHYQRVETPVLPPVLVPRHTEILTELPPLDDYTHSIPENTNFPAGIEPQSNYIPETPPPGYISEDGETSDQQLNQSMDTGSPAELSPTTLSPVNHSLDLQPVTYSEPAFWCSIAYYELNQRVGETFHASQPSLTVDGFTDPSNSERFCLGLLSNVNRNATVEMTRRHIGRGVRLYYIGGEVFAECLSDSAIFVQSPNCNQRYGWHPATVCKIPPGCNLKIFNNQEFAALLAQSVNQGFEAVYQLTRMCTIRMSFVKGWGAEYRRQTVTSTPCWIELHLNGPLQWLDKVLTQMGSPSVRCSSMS
UniProt Q8BUN5: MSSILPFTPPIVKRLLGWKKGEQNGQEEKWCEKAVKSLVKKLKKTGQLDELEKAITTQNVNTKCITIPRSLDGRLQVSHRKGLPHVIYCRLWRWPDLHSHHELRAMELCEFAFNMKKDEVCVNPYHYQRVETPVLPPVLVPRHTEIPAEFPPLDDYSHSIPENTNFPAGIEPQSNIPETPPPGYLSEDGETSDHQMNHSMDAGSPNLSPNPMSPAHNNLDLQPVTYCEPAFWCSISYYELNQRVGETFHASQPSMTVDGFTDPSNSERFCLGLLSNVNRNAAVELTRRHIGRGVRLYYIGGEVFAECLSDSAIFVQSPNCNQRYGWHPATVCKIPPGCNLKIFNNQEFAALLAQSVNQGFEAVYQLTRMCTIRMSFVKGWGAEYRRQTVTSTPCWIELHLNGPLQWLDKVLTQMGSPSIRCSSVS

Key:
[1] = molecular target: T1, TGFβR1 (mouse (endogenous in primary HSCs and AML12)) (UniProt Q64729); test: co-IP; co-immunoprecipitation from AML12 cells with or without over-expression of lnc-LFAR1 (Supplementary Fig. 13g)
T1 sequence: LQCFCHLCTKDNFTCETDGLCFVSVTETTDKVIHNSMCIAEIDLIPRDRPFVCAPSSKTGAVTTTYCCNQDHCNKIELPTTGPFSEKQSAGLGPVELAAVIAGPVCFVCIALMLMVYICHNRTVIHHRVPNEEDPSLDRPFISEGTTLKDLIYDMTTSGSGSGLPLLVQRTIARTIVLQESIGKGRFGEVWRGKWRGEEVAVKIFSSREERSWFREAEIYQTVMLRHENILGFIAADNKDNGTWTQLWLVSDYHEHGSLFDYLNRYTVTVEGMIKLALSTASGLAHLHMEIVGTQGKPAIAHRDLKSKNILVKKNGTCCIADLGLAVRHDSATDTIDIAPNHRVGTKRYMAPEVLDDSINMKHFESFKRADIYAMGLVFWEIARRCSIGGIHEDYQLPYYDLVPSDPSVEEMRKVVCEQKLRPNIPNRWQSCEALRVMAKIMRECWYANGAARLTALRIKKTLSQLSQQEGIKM

[2] = molecular target: T1, TGFβR1 (mouse (endogenous in primary HSCs and AML12)); test: co-IP; TGFβR1 and Smad2/3 antibodies used for co-immunoprecipitation from lysates of primary HSCs infected with or without LV-lnc-LFAR1; western blot

Row | binding [1] | binding [2] | Substance
1 | binds | binds | Smad2 (from UniProt Q62432 1-467)
2 | binds | binds | Smad3 (from UniProt Q8BUN5 1-425)
